Results on 5 molecules are retold here after paper PMC10758069.

By UniProt entry, the sequences of proteins in these tests, tags left out.
UniProt Q8CFI0: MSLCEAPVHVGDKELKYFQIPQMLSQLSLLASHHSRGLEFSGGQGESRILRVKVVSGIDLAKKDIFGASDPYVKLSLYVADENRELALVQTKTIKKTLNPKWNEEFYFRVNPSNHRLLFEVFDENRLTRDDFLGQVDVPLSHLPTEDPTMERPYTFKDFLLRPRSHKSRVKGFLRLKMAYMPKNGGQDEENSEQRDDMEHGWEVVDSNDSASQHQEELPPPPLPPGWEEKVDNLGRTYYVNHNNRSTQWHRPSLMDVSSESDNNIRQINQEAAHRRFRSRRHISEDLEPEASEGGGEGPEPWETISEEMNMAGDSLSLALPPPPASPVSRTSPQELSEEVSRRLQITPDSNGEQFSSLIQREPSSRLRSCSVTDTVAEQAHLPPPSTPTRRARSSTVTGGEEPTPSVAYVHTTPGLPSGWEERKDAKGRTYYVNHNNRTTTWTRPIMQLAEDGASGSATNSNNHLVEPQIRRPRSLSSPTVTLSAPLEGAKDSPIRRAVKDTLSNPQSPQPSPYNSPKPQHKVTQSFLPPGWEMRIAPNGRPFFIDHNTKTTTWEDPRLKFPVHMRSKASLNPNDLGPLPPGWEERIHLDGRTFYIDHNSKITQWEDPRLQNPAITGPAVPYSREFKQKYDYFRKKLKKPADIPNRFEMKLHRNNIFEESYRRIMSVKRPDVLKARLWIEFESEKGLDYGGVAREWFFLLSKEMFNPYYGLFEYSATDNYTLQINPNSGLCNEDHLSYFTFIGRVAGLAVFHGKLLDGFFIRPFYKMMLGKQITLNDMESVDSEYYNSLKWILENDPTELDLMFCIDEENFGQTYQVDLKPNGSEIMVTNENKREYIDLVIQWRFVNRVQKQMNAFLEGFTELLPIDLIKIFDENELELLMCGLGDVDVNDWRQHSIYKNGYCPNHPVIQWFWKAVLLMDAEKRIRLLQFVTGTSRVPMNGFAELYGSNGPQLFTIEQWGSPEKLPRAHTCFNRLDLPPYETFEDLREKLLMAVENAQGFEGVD

Assay [1] deals with T1, Pit-1 wild type, expressed from plasmid in HEK293T cells (mouse) (UniProt Q61609).
T1 sequence: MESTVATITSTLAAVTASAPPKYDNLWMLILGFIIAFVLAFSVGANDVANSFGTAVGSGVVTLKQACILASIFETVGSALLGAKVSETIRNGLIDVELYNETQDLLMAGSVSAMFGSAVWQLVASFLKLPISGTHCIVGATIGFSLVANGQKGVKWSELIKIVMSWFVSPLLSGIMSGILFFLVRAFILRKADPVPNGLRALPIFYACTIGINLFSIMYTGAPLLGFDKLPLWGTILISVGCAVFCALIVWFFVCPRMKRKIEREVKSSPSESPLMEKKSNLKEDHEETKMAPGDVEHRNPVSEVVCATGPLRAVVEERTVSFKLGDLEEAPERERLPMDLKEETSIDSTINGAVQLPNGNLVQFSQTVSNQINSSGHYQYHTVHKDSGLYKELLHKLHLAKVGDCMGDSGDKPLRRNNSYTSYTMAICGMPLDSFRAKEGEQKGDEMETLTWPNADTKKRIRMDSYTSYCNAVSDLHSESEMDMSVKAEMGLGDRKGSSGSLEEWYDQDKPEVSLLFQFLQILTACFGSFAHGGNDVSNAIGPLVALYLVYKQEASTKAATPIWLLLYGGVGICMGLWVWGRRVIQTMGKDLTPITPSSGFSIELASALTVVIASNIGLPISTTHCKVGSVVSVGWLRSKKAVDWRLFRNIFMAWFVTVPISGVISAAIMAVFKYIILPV
Briefly: co-IP; HEK293T cells transfected with the indicated plasmids (Pit-1, Nedd4-2, with or without SGK3-S486D) for 48 h; lysates precipitated with anti-Pit-1 antibody; blot with anti-Nedd4-2, anti-Pit-1, anti-SGK3 (Figure 7H).

For assay [2], the target named is T2, type III sodium-dependent phosphate cotransporter-1 (Pit-1), endogenous in mouse VSMCs (mouse (endogenous in mouse VSMCs)) (UniProt Q61609).
T2 sequence: T1 sequence
Briefly: co-IP; mouse VSMCs treated with or without high Pi (3 mM, 48 h); whole-cell lysates (about 1 mg protein) precipitated with anti-Pit-1 antibody and protein A+G agarose overnight at 4 °C; blot with anti-Pit-1 and anti-SGK3.

The target of assay [3] is T1, Pit-1 wild type, expressed from plasmid in HEK293T cells (mouse). Briefly: co-IP; HEK293T cells co-transfected with WT SGK3 and Pit-1 plasmids for 48 h; whole-cell lysates precipitated with anti-Pit-1 antibody (Figure 4D) or anti-SGK3 antibody (Figure 4E), protein A+G agarose, overnight at 4 °C; blot with anti-Pit-1 and anti-SGK3.
Assay [4] has the same target. The assay can be described thus: co-IP; HEK293T cells co-transfected with SGK3-S486D and Pit-1 wild type or Pit-1 T468A plasmid; precipitating antibody not told for this panel (Figure 4I).
For assay [5], the target named is T3, WT SGK3, expressed from plasmid in HEK293T cells (UniProt Q9ERE3).
T3 sequence: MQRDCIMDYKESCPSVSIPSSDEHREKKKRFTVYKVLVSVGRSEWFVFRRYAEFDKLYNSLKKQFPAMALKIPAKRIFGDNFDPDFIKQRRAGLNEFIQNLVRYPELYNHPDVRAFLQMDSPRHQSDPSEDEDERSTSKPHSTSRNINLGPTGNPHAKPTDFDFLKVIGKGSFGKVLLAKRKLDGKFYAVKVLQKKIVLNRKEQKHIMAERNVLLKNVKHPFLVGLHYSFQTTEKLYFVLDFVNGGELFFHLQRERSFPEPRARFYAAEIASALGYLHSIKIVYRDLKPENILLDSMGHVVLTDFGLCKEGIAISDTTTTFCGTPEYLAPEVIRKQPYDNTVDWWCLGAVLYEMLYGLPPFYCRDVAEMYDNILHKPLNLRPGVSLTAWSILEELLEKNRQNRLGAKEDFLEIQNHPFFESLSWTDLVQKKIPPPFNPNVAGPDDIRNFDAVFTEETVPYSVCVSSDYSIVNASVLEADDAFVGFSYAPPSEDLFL
Briefly: co-IP; HEK293T cells co-transfected with WT SGK3 and Pit-1 plasmids for 48 h; whole-cell lysates precipitated with anti-Pit-1 antibody (Figure 4D) or anti-SGK3 antibody (Figure 4E), protein A+G agarose, overnight at 4 °C; blot with anti-Pit-1 and anti-SGK3.

Where a chain is given by its changes, count along the chain named. Numbers in names are those of the source. Results are given in words; binding and its absence hold for the method and conditions named. Binding seen in cells or lysates may run through a third protein. Some entries that bind do so weakly or less than the wild type. For some assays here: Where a sequence is shown, tags or fusion partners need not be part of it.

Consider “neural precursor cells expressing developmentally downregulated protein 4 subtype 2 (Nedd4-2), mouse, expressed in HEK293T cells (from UniProt Q8CFI0 1-1004) (enzyme)”, for which, in assay [1], the binding result is “binds”.

B1: serum- and glucocorticoid-induced kinase 3 (SGK3), endogenous in mouse VSMCs (enzyme, UniProt Q9ERE3 1-496)
chain: T3 sequence
As for B1, in assay [2], the binding result is on record as “binds”.

B2: WT SGK3, expressed from plasmid in HEK293T cells (enzyme, UniProt Q9ERE3 1-496)
chain: T3 sequence
As for B2, the binding result in assay [3] is recorded as “binds”.

B3: constitutively activated S486D mutant of mouse SGK3 (SGK3-S486D), expressed in HEK293T cells (enzyme, UniProt Q9ERE3 1-496)
chain: T3 sequence with S486D
Turning to B3, in assay [4], the binding entry is “binds”.

B4: Pit-1 wild type, expressed from plasmid in HEK293T cells (protein, UniProt Q61609 1-681)
chain: T1 sequence
Turning to B4, the binding result in assay [5] is reported as “binds”.
